# Results: PubChem BioAssay AID330 (DTP/NCI, 2004)
# The list is a part of this screen's results and no random one: it is rich in T/C values a quarter to a half above the control, in often repeated tests (any T/C) and in doses without a T/C. Further doses and runs are listed elsewhere. T/C is the treated group as % of the vehicle group. Some doses have a count of surviving animals in place of a T/C: the source files T/C as zero there, which appears to mark a toxic dose or a test without result, not a measured value. Some doses without a T/C left all or most animals alive at the check, yet need not have been tolerated: survival well below the control is almost never listed, so the zero probably covers shortened survival too. Survivors were counted at the toxicity check, usually on the fifth day, unless a day is given; later deaths do not show. Schedule codes are those of the source, taken here to give the interval after Q, in days (D) or hours (H), and the number of doses after X. Some entries were tested several times; the results are listed from low to high. For survival time, the PubChem record calls one and a half times the control and up active, and a quarter to a half above the control has no call in these data; cut-offs in other NCI protocols can differ. Some T/C values are followed by the survivors on the day toxicity was checked, most often the fifth; without a count, all were alive then. Additions like (4×) stand for listed records that agree.
# Test system: P388 leukemia ip, CD2F1 mice, survival T/C
# Assay: NCI In Vivo Anticancer Drug Screen. Data for tumor model P388 Leukemia (intraperitoneal) in CD2F1 (CDF1) mice
# Settings: T/C endpoint: median survival time, higher T/C = longer survival
# [1] = dose: 50.0 mg/kg/injection, schedule: Q04DX003 (ip), vehicle: Klucel (hydroxypropylcellulose) (HPC)
# [2] = dose: 100.0 mg/kg/injection, schedule: Q01DX005 (ip), vehicle: Klucel (hydroxypropylcellulose) (HPC)
# [3] = dose: 100.0 mg/kg/injection, schedule: Q01DX009 (ip), vehicle: Klucel (hydroxypropylcellulose) (HPC)
# [4] = dose: 100.0 mg/kg/injection, schedule: Q04DX003 (ip), vehicle: Klucel (hydroxypropylcellulose) (HPC)
# [5] = dose: 200.0 mg/kg/injection, schedule: Q01DX005 (ip), vehicle: Klucel (hydroxypropylcellulose) (HPC)
# [6] = dose: 200.0 mg/kg/injection, schedule: Q01DX009 (ip), vehicle: Klucel (hydroxypropylcellulose) (HPC)
# [7] = dose: 200.0 mg/kg/injection, schedule: Q04DX003 (ip), vehicle: Klucel (hydroxypropylcellulose) (HPC)
# [8] = dose: 400.0 mg/kg/injection, schedule: Q04DX002 (ip), vehicle: Klucel (hydroxypropylcellulose) (HPC)
# [9] = dose: 400.0 mg/kg/injection, schedule: Q04DX003 (ip), vehicle: Klucel (hydroxypropylcellulose) (HPC)
structure (smiles),measurement,setting,value
NC(=S)N/N=C/c1ccc(O)cn1,T/C,"dose: 9.4 mg/kg/injection, schedule: Q01DX009 (ip), vehicle: saline with Tween-80",143 % of control
same,T/C,"dose: 18.8 mg/kg/injection, schedule: Q01DX009 (ip), vehicle: saline",144 % of control
same,T/C,"dose: 25.0 mg/kg/injection, schedule: Q01DX005 (ip), vehicle: Klucel (hydroxypropylcellulose) (HPC)","118, 119, 121, 123, 124 [5 of 6 alive], 125, 127, 128, 130, 133, 138, 139 (2×), 142 (2×), 143, 147 (2×), 148, 149 (2×), 150, 151 (3×), 152 (2×), 153 (3×), 154, 156, 161 (2×), 163, 168 % of control"
same,T/C,"dose: 25.0 mg/kg/injection, schedule: Q01DX009 (ip), vehicle: Klucel (hydroxypropylcellulose) (HPC)","129 [2 of 3 alive], 135, 139 (3×), 141, 143, 145, 147, 149, 150 (3×), 151, 153, 155, 156, 157, 158, 159, 161 (2×), 163 (3×), 163 [5 of 6 alive], 168, 169 (2×), 174, 180, 181, 183, 184, 185 % of control"
same,T/C,"dose: 25.0 mg/kg/injection, schedule: Q04DX003 (ip), vehicle: Klucel (hydroxypropylcellulose) (HPC)",135 % of control
same,T/C,"dose: 37.5 mg/kg/injection, schedule: Q01DX009 (ip), vehicle: saline with Tween-80",145 % of control
same,T/C,"dose: 50.0 mg/kg/injection, schedule: Q01DX001 (ip), vehicle: Klucel (hydroxypropylcellulose) (HPC)","93 [4 of 6 alive], 100, 104 [2 of 3 alive], 105 [2 of 3 alive], 109 (2×), 113, 116, 117 (2×), 119, 120, 121, 122, 123, 125, 126, 127, 127 [5 of 6 alive], 128 (4×), 129, 131, 132 (2×), 134, 138, 139, 146 [2 of 3 alive], 147 % of control"
same,T/C,"dose: 50.0 mg/kg/injection, schedule: Q01DX005 (ip), vehicle: Klucel (hydroxypropylcellulose) (HPC)","121, 124, 125, 130, 131, 133 [5 of 6 alive], 138, 140, 142 (3×), 143, 144, 150, 153 (2×), 156 (2×), 157 (2×), 160 (2×), 163 (2×), 165 (3×), 166, 168, 169, 171 (2×), 175, 177 (2×), 179 % of control"
same,T/C,"dose: 50.0 mg/kg/injection, schedule: Q01DX009 (ip), vehicle: Klucel (hydroxypropylcellulose) (HPC)","96, 130 [2 of 3 alive], 135, 150, 151 (2×), 159 (2×), 163 (2×), 165, 166 (2×), 170, 171 (3×), 175 (3×), 179, 179 [5 of 6 alive], 180, 181, 182, 183, 184, 185, 187, 188, 191 (2×), 198, 213, 223 % of control"
same,T/C,"dose: 50.0 mg/kg/injection, schedule: Q04DX002 (ip), vehicle: Klucel (hydroxypropylcellulose) (HPC)","98, 100, 111 (2×), 112, 113 (2×), 116, 121, 122, 123 (3×), 127 (2×), 129, 131 (2×), 132, 133 (3×), 135, 136, 137, 139 (2×), 140, 143, 145, 150, 151, 153, 163, 170 % of control"
same,T/C,[1],"100, 115, 116 [5 of 6 alive], 119, 120, 121 (2×), 125 (2×), 128 (2×), 130, 134 (2×), 135, 136 (2×), 137, 138, 139, 140 (2×), 141, 142, 143, 144, 144 [5 of 6 alive], 145 (2×), 149, 151, 155, 159, 163, 165 % of control"
same,survivor count,[1],3 of 3 and 6 of 6
same,survivor count,"dose: 75.0 mg/kg/injection, schedule: Q01DX009 (ip), vehicle: other",6 of 6
same,T/C,"dose: 100.0 mg/kg/injection, schedule: Q01DX001 (ip), vehicle: Klucel (hydroxypropylcellulose) (HPC)","93, 100, 109, 119, 122, 123 (3×), 125 (3×), 127, 128 (2×), 130, 131, 132 (4×), 134 (3×), 135, 138 (2×), 142, 144 (2×), 145 (2×), 154 % of control"
same,T/C,[2],"88, 104, 121, 138 (2×), 141, 146, 150, 151 (2×), 154 (2×), 155, 157, 158, 159, 166, 174, 176 (2×), 177, 178, 180, 182 (2×), 183, 188, 189 (2×), 191, 198 [5 of 6 alive], 199, 200, 206, 218 % of control"
same,survivor count,[2],3 of 3
same,T/C,[3],"86, 92, 98, 103, 140, 145, 170, 174, 183, 185, 192, 196, 198, 199, 202 (2×), 204, 209, 213 % of control"
same,survivor count,[3],3 of 3 and 6 of 6
same,T/C,"dose: 100.0 mg/kg/injection, schedule: Q04DX002 (ip), vehicle: Klucel (hydroxypropylcellulose) (HPC)","87 [2 of 3 alive], 101, 109, 112, 115, 118 (2×), 120 (2×), 122, 124, 125, 126, 129, 129 [5 of 6 alive], 130 (2×), 131, 135, 138, 141 (2×), 144, 145 (2×), 146, 148, 150, 151, 152, 153, 160, 161, 162, 163 % of control"
same,T/C,[4],"100, 112 (2×), 113, 121, 122, 126, 128, 130, 134, 136, 139, 141, 142, 145, 148, 150 (2×), 151, 153, 155, 157, 158 (3×), 160, 165, 168 (2×), 171, 173, 174, 195 % of control"
same,survivor count,[4],"0 of 6, 3 of 3, 6 of 6"
same,survivor count,"dose: 150.0 mg/kg/injection, schedule: Q01DX009 (ip), vehicle: other",6 of 6
same,survivor count,"dose: 150.0 mg/kg/injection, schedule: Q01DX009 (ip), vehicle: saline with Tween-80",6 of 6
same,survivor count,"dose: 150.0 mg/kg/injection, schedule: Q01DX009 (ip), vehicle: saline",5 of 6
same,T/C,"dose: 200.0 mg/kg/injection, schedule: Q01DX001 (ip), vehicle: Klucel (hydroxypropylcellulose) (HPC)","93, 103, 126, 127, 128, 131, 132, 134, 135 (2×), 136, 137, 139, 140, 141 (4×), 142, 143, 145 (2×), 146, 147, 148, 149, 150 (2×), 151, 153, 154, 161 % of control"
same,T/C,[5],"88, 130, 133, 146, 147, 152, 157, 160, 179, 209 % of control"
same,survivor count,[5],"1 of 6, 1 of 3, 2 of 3, 4 of 6, 5 of 6, 3 of 3, 6 of 6"
same,T/C,[6],"89, 96, 207 % of control"
same,survivor count,[6],"1 of 3, 2 of 6, 2 of 3, 4 of 6, 3 of 3, 6 of 6"
same,T/C,"dose: 200.0 mg/kg/injection, schedule: Q04DX002 (ip), vehicle: Klucel (hydroxypropylcellulose) (HPC)","100, 115, 120, 128, 130, 131, 134 (2×), 135 (2×), 136, 137, 138, 139, 142, 147 (3×), 148 (2×), 149, 151, 152, 154 (2×), 155, 159, 160, 163, 168, 172 (2×), 178, 183, 206 % of control"
same,T/C,[7],"96, 119, 131, 144, 145 (2×), 147 (2×), 148, 149, 154, 155, 158 (2×), 159, 160, 162, 163, 165 (3×), 166 (2×), 168 (2×), 169 (2×), 170, 171, 178, 181, 182, 184 % of control (2×)"
same,survivor count,[7],3 of 3 and 6 of 6
same,survivor count,"dose: 300.0 mg/kg/injection, schedule: Q01DX009 (ip), vehicle: saline",2 of 6
same,T/C,"dose: 400.0 mg/kg/injection, schedule: Q01DX001 (ip), vehicle: Klucel (hydroxypropylcellulose) (HPC)","99, 100, 110, 127, 129, 129 [5 of 6 alive], 134, 138, 142 (3×), 144 (2×), 145, 146, 149 (2×), 150, 152 (2×), 156 (2×), 157, 158 (2×), 159 (2×), 160, 163, 175 % of control"
same,T/C,[8],"89, 94, 100, 114, 115, 125, 129 (2×), 137, 148 (2×), 159, 160, 163 (2×), 166 (3×), 169 [5 of 6 alive], 175 [5 of 6 alive], 191, 203, 204 % of control"
same,survivor count,[8],"2 of 3, 3 of 3, 6 of 6"
same,T/C,[9],"87, 90 (2×), 93, 111, 112, 113, 120, 123, 128, 142, 147, 153, 186, 191, 192, 195, 216 % of control"
same,survivor count,[9],"2 of 3, 3 of 3, 6 of 6"
O=C1C(=O)N(c2ccccc2)C(=O)N1c1ccccc1,survivor count,"dose: 50.0 mg/kg/injection, schedule: Q01DX009 (ip), vehicle: saline with Tween-80",6 of 6
same,survivor count,"dose: 200.0 mg/kg/injection, schedule: Q01DX009 (ip), vehicle: saline with Tween-80",6 of 6
same,survivor count,"dose: 400.0 mg/kg/injection, schedule: Q01DX009 (ip), vehicle: saline with Tween-80",5 of 6
[Cl][Pd]([Cl])([Cl])[Cl],survivor count,"dose: 100.0 mg/kg/injection, schedule: Q01DX009 (ip), vehicle: saline",4 of 6
same,survivor count,"dose: 200.0 mg/kg/injection, schedule: Q01DX009 (ip), vehicle: saline",4 of 6
Cc1ccc(Nc2ccc(Cl)cc2[N+](=O)[O-])cc1,survivor count,"dose: 120.0 mg/kg/injection, schedule: Q01DX005 (ip), vehicle: Klucel + Tween-80",1 of 6
same,survivor count,"dose: 240.0 mg/kg/injection, schedule: Q01DX005 (ip), vehicle: Klucel + Tween-80",0 of 6
